Results taken from paper PMC5517149.
No constants are given. Whether binding was seen depends on the method and setting. In cells and extracts the contact can be indirect. These calls come from enrichment with a bait or labelling near it, and not all partners need be listed. For some assays here: Tags and fused reporters may be left off the sequences shown.

Protein sequences, listed by entry. Tags and fused reporters are not part of them.
UniProt Q9H6L5: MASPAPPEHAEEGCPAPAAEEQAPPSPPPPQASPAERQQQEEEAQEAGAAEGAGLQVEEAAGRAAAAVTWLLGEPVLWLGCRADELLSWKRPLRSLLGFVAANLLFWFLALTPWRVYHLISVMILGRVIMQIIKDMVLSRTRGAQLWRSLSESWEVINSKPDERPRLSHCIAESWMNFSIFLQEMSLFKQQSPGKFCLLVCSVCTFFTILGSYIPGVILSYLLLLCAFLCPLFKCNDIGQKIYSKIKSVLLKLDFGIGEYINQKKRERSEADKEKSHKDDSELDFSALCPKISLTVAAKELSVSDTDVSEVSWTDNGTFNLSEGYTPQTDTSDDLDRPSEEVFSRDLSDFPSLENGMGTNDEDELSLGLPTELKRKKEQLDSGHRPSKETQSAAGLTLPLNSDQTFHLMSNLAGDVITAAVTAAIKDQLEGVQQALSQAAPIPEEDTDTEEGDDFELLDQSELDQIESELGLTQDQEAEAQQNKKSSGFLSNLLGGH
UniProt Q9NQC3: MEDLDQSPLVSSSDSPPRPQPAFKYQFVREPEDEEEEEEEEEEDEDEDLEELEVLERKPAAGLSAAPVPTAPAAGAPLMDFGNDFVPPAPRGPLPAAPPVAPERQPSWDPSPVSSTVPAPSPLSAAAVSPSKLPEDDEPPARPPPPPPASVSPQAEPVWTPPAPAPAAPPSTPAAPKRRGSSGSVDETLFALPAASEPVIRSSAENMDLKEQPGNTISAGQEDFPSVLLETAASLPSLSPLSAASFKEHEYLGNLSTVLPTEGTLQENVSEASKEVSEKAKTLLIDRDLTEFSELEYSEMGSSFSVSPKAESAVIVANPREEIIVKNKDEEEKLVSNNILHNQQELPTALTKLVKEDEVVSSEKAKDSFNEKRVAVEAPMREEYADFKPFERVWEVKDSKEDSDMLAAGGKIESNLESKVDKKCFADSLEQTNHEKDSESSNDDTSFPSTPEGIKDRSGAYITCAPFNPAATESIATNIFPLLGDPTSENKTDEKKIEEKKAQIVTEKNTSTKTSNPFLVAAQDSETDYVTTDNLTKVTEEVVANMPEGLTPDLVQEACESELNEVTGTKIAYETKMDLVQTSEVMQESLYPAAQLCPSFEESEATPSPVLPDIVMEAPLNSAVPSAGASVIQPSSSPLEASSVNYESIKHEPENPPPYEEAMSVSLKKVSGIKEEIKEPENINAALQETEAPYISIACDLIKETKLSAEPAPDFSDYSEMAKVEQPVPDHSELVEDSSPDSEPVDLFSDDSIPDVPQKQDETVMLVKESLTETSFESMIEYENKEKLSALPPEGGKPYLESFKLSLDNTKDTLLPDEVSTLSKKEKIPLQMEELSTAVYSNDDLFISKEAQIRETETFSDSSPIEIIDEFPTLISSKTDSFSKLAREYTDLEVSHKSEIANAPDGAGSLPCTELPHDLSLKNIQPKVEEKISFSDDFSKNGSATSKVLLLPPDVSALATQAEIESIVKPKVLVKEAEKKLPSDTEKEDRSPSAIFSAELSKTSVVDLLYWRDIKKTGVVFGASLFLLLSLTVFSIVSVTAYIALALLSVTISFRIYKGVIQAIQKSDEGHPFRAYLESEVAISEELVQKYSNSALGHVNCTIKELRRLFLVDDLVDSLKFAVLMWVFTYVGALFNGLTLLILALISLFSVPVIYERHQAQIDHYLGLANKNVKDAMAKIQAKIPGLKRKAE
UniProt P60520: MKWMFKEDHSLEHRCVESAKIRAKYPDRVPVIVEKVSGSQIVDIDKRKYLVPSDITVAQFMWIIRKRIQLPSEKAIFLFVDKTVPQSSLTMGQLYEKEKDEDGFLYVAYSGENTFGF
UniProt Q07065: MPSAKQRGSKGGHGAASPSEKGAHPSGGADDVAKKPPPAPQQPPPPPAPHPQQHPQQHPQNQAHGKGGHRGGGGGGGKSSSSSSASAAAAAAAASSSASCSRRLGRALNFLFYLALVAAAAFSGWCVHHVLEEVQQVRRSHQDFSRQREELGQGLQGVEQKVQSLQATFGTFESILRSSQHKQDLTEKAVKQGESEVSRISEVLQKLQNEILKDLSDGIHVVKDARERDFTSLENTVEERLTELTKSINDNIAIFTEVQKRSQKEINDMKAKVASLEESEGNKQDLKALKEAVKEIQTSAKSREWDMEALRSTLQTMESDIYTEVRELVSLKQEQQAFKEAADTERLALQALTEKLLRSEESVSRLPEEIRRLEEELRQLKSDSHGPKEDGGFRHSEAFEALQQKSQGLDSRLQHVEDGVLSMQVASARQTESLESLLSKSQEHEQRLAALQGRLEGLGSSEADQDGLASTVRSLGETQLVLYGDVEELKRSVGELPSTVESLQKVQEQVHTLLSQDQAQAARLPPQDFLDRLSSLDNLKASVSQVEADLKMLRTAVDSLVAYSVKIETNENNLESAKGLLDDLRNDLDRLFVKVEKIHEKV
UniProt Q14145: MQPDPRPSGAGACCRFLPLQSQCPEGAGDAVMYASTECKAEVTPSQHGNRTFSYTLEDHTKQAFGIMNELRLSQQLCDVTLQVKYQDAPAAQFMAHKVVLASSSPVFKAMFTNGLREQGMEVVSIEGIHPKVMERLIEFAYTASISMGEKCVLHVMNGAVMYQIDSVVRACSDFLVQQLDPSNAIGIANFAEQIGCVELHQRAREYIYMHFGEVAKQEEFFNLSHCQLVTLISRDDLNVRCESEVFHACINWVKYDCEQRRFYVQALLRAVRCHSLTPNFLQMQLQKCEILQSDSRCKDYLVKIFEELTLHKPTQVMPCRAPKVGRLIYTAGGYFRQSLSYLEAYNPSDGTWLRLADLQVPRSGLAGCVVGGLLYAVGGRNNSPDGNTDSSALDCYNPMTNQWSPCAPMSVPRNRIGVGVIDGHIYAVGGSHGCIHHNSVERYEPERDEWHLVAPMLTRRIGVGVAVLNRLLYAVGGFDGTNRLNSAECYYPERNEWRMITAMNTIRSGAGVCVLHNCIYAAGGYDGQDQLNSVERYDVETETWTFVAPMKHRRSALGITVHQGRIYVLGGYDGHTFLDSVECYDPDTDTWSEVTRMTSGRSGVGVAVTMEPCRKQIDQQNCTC

T1: FLAG-HA-RTN2L (human) (UniProt O75298)
T1 sequence: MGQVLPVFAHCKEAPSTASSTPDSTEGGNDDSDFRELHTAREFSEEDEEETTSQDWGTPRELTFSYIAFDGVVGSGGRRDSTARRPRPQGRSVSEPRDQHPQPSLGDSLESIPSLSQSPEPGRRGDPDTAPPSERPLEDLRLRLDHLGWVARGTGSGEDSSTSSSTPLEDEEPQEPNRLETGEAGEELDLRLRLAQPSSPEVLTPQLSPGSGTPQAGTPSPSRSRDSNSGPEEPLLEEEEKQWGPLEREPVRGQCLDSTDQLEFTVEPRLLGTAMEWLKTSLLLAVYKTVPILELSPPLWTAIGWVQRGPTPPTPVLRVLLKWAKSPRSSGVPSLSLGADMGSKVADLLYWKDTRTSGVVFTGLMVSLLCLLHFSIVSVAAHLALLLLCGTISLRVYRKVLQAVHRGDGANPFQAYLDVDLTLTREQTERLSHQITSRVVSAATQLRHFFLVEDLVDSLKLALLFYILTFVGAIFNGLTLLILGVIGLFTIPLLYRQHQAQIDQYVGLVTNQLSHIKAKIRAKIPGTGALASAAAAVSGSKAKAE

B1: RNF41 (protein, UniProt Q9H4P4 1-317)
chain: MGYDVTRFQGDVDEDLICPICSGVLEEPVQAPHCEHAFCNACITQWFSQQQTCPVDRSVVTVAHLRPVPRIMRNMLSKLQIACDNAVFGCSAVVRLDNLMSHLSDCEHNPKRPVTCEQGCGLEMPKDELPNHNCIKHLRSVVQQQQTRIAELEKTSAEHKHQLAEQKRDIQLLKAYMRAIRSVNPNLQNLEETIEYNEILEWVNSLQPARVTRWGGMISTPDAVLQAVIKRSLVESGCPASIVNELIENAHERSWPQGLATLETRQMNRRYYENYVAKRIPGKQAVVVMACENQHMGDDMVQEPGLVMIFAHGVEEI

Assays:
Experiment in all cases: affinity purification with mass spectrometry; SILAC; anti-HA-agarose IP from lysates of U2OS TRex cells expressing the FLAG-HA bait (doxycycline 24 hr, bafilomycin A1) against mock cells; 50 mM Tris/HCl pH 7.5, 120 mM NaCl, 1% NP40; LC-MS/MS
FLAG-HA-RTN2L (human) = molecular target: T1, FLAG-HA-RTN2L (human)
FLAG-HA-FAM134B (human) = FLAG-HA-FAM134B (human) (UniProt Q9H6L5)
FLAG-HA-RTN4L (human) = FLAG-HA-RTN4L (human) (UniProt Q9NQC3)

Molecule	binding (FLAG-HA-RTN2L (human))	binding (FLAG-HA-FAM134B (human))	also measured
SQSTM1 (from UniProt Q13501 1-440)	binds	–	–
GABARAP-L2 (endogenous) (from UniProt P60520 1-117)	–	binds	–
CLIMP-63 (from UniProt Q07065 1-602)	–	binds	–
KEAP1 (from UniProt Q14145 1-624)	binds	–	–
B1	–	–	binding (FLAG-HA-RTN4L (human)): binds
